Assay results from publication doi:10.1101/755678.
No constants are given. Whether binding was seen depends on the method and setting.

Molecular target: T1, N-terminally fluorescein-labelled P4 peptide (Streptococcus cristatus)
T1 sequence (peptide, fluorescein (FAM) on the N-terminus): NIFKKNVGFKK
Test: MST

Omp40-41 complex from W83 (OmpA-like OM protein complex) (Porphyromonas gingivalis W83)
binding: no binding
